In article PMC11508090:
These are yes or no findings as the source states them, for the method shown. In cells and extracts the contact can be indirect. These calls come from enrichment with a bait or labelling near it, and not all partners need be listed. For some assays here: A no says only that the protein was not detected with the bait.

T1: Ecm11-TurboID (S. cerevisiae) (UniProt Q04110)
T1 sequence: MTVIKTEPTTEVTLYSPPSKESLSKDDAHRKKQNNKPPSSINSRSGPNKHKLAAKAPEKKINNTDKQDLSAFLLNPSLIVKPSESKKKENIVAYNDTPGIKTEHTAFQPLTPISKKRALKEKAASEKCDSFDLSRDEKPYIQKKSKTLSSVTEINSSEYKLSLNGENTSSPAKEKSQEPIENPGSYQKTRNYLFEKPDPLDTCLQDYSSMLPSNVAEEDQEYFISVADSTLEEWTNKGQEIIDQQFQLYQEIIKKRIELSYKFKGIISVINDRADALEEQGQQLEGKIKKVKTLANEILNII

T2: Zip2-TurboID (S. cerevisiae) (UniProt P53061)
T2 sequence: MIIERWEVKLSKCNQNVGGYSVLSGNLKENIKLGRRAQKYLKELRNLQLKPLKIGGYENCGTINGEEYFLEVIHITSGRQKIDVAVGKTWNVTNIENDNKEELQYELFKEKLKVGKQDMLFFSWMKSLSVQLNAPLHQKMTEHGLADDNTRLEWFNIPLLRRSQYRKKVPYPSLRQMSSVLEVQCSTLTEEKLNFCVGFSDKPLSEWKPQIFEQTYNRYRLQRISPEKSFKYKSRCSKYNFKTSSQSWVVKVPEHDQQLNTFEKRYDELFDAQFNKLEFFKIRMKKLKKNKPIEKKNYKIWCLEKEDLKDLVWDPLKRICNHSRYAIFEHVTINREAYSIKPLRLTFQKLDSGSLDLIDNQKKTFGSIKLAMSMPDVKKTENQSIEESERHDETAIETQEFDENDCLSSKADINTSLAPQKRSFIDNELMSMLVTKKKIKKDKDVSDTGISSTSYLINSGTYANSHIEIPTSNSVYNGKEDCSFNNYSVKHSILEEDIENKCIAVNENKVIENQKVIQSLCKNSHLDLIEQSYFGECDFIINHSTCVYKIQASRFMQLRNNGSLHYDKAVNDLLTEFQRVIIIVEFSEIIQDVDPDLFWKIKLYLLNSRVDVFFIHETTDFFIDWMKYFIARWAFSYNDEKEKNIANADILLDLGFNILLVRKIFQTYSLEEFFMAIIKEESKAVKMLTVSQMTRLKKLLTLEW

T3: Spo16-TurboID (S. cerevisiae) (UniProt P17122)
T3 sequence: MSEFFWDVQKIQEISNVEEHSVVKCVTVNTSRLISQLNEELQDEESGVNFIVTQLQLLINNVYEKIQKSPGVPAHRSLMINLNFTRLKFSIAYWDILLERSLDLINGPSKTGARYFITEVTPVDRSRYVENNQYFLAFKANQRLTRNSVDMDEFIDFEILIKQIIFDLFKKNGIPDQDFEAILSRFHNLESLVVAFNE

T4: Zip3iTurboID (S. cerevisiae) (UniProt Q06032)
T4 sequence: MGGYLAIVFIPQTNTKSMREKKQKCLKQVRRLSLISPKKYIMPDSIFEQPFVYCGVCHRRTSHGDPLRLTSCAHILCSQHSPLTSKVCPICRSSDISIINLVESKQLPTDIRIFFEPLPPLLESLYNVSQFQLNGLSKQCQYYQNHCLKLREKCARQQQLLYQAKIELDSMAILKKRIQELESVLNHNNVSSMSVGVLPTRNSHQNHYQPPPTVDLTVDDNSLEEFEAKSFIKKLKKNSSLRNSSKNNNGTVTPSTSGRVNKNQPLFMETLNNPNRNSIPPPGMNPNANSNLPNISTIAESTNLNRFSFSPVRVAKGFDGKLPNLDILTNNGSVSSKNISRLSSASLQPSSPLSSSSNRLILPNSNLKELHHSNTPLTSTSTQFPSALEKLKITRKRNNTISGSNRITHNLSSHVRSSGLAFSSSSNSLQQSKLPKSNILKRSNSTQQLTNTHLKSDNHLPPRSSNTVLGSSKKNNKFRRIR


Assays:
[1] = biological target: Zip4[N919Q]iTurboID (S. cerevisiae); assay: proximity labelling; TurboID fusion allele (homozygous, or heterozygous where said) in ndt80 diploid cells, 24 h in sporulation medium, endogenous biotin; TCA extract, 8% or 12% SDS-PAGE, streptavidin:HRP blot; also done in mutant backgrounds in which the labelling was kept
[2] = biological target: T1, Ecm11-TurboID (S. cerevisiae); assay: as above
[3] = biological target: T2, Zip2-TurboID (S. cerevisiae); assay: proximity labelling; eleven TurboID fusion strains (ndt80, homozygous) and a no-TurboID control, ~24 h sporulation, two replicates; TCA extract, streptavidin-sepharose pull-down, trypsin, UPLC-MS/MS; targets = in both replicates and in neither control
[4] = biological target: T3, Spo16-TurboID (S. cerevisiae); assay: as above
[5] = biological target: T4, Zip3iTurboID (S. cerevisiae); assay: as above

Row | binding [1] | binding [2] | binding [3] | binding [4] | binding [5] | Binder
1 | no binding | binds | – | – | – | Ecm11 (protein, UniProt Q04110 1-302) MTVIKTEPTTEVTLYSPPSKESLSKDDAHRKKQNNKPPSSINSRSGPNKHKLAAKAPEKKINNTDKQDLSAFLLNPSLIVKPSESKKKENIVAYNDTPGIKTEHTAFQPLTPISKKRALKEKAASEKCDSFDLSRDEKPYIQKKSKTLSSVTEINSSEYKLSLNGENTSSPAKEKSQEPIENPGSYQKTRNYLFEKPDPLDTCLQDYSSMLPSNVAEEDQEYFISVADSTLEEWTNKGQEIIDQQFQLYQEIIKKRIELSYKFKGIISVINDRADALEEQGQQLEGKIKKVKTLANEILNII
2 | – | – | binds | binds | binds | Zip1 (protein, UniProt P31111 1-875) MSNFFRDSSMGFKPRPNIFAKLRVRDVDSDSSANTVVENSSNCLDVGSSIEGDDTFKKPHKTSTEQELITSMSLSQRNHGYSDDMEIGSPKKTTSTDQYNRILKNDVAAIENDTDEDFEITEVREVSEGVAKETKESHGDPNDSETTLKDSKMHEYTMTNGKAPLHTSINNSSTSSNDVLLEAFTNTQRICSNLKQELQKQQQDNAKLKVRLQSYASNSDKINEKVGKYKSCLETLQERIATLTSHKNNQETKLKDLRQNHQLYQRRISGFKTSIENLNKTINDLGKNKKEADAELMKKGKEIEYLKRELDDCSGQLSEEKIKNSSLIQEMGKNREEMIKSIENFFSEDKAHHLLQFNKFEERVHDLFEKKLQKHFDVAKDTLNVGLRNTTVELSSNTETMLKQQYEDIKENLEQKMSSSKDEMAKTINELSVTQKGLIMGVQEELLTSSGNIQTALVSEMNNTRQELLDDASQTAKNYASLENLVKAYKAEIVQSNEYEERIKHLESERSTLSSQKNQIISSLGTKEAQYEDLVKKLEAKNIEISQISGKEQSLTEKNENLSNELKKVQDQLEKLNNLNITTKSNYENKISSQNEIVKALVSENDTLKQRIQQLVEIKENEQKDHTTKLEAFQKNNEQLQKLNVEVVQLKAHELELEEQNRHLKNCLEKKETGVEESLSDVKTLKQQVIVLKSEKQDITAEKLELQDNLESLEEVTKNLQQKVQSQKRELEQKIKELEEIKNHKRNEPSKKGTQNFTKPSDSPKKNATTSNLFPNNSAAIHSPMKKCPKVDHISKSRINSSKETSKFNDEFDLSSSSNDDLELTNPSPIQIKPVRGKIKKGSNCMKPPISSRKKLLLVEDEDQSLKISKKRRRK
